Results deposited as PubChem BioAssay AID602196 (INSERM, 2012)

- Test: 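Modifiers of cisplatin sensitivity in A549 cells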
- Cells: human A549 lung cancer cells
- Reagents: siRNA pair against human genes
- Timing: 48 h transfection before cisplatin; time from cisplatin to read-out not stated
- Treatment: cisplatin at a dose killing half of control-siRNA cells; exact dose and duration not given
- Measured: 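Cisplatin cell death as a shift from the 50% death seen with control siRNA; siRNAs toxic or growth-blocking alone scored 0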
- Direction: two-siRNA summed score (-2 to +2): higher = both siRNAs protect from cisplatin killing; -2 means both sensitise; mean protection from cisplatin (shift in death) and protection from cisplatin (shift in death), siRNA C and protection from cisplatin (shift in death), siRNA D: higher = protection from cisplatin killing
- Hit rule: 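Each siRNA scores 0 if harmful alone by LDH or WST-1, otherwise +1 if it reduces and -1 if it increases cisplatin killing; a gene is active when both siRNAs agree (sum +2 or -2)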
- Meaning of the calls: active = both siRNAs shift cisplatin killing the same way; inactive = no consistent shift, or siRNA harmful alone
This is one part, drawn at random, of about 23,000 deposited reagents. Over the whole deposit, 455 (2%) are marked active. 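Active includes both protection and sensitisation; some change values fall well beyond the stated -50 to +50 range.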 A number with no mark means an inactive call. Not stated in the record: the amount of reagent.

| gene | PubChem SID | two-siRNA summed score (-2 to +2) | mean protection from cisplatin (shift in death) (%) | protection from cisplatin (shift in death), siRNA C (%) | protection from cisplatin (shift in death), siRNA D (%) |
| --- | --- | --- | --- | --- | --- |
| LOC400858 | SID131513604 | 0 | 6.8 | 3.8 | 9.7 |
| LOC87769 | SID131516760 | 0 | 11.6 | 9 | 14.1 |
| LOC440748 | SID131522708 | 1 | 22 | 32.8 | 11.3 |
| LOC441689 | SID131520650 | 1 | 10.7 | 15.1 | 6.2 |
| CCDC171 (coiled-coil domain containing 171) | SID131511886 | 0 | 4.9 | 11.1 | -1.4 |
| DEFA4 (defensin alpha 4) | SID131504445 | 0 | -5.4 | -16.8 | 6 |
| LOC340246 | SID131514367 | 0 | 7.7 | 5 | 10.4 |
| ASCL4 (achaete-scute family bHLH transcription factor 4) | SID131513356 | 0 | 6.5 | 2.5 | 10.5 |
| SMARCA4 | SID131504384 | 0 | -5.6 | -9.7 | -1.4 |
| PUF60 (poly(U) binding splicing factor 60) | SID131512489 | 0 | 5.5 | -28.8 | 39.8 |
| NHERF2 (NHERF family PDZ scaffold protein 2) | SID131521556 | 1 | 14 | 29.3 | -1.4 |
| DOCK10 (dedicator of cytokinesis 10) | SID131501310 | -1 | -10.6 | -14.3 | -6.9 |
| PFKP (phosphofructokinase, platelet) | SID131505681 | 0 | -2.7 | -0.2 | -5.3 |
| FAM177A1 (family with sequence similarity 177 member A1) | SID131514674 | 0 | 8.1 | 10.5 | 5.7 |
| ELFN2 | SID131520348 | 1 | 9.6 | 14 | 5.2 |
| FLJ00310 | SID131515784 | 0 | 9.7 | 7.9 | 11.5 |
| MIR646HG (MIR646 host gene) | SID131511888 | 0 | 4.9 | 7.1 | 2.7 |
| LOC391373 | SID131520203 | 1 | 9 | -0.2 | 18.3 |
| SSX4 (SSX family member 4) | SID131504096 | 0 | -6.5 | 5.4 | -18.4 |
| MGAM (maltase-glucoamylase) | SID131506292 | 0 | -1.7 | 4.4 | -7.9 |
| LOC441074 | SID131512237 | 0 | 5.3 | 6.9 | 3.6 |
| DYNLT2 (dynein light chain Tctex-type 2) | SID131500711 | -1 | -17.3 | -32.8 | -1.7 |
| ELP6 (elongator acetyltransferase complex subunit 6) | SID131508187 | 0 | 0.7 | 5 | -3.5 |
| RNF8 (ring finger protein 8) | SID131513370 | 0 | 6.5 | 4.8 | 8.2 |
| THAP5 (THAP domain containing 5) | SID131512609 | 0 | 5.7 | 15.6 | -4.3 |
| DUSP4 (dual specificity phosphatase 4) | SID131520730 | 1 | 10.9 | 22.6 | -0.8 |
| COX6A2 (cytochrome c oxidase subunit 6A2) | SID131521716 | 1 | 14.6 | 26.2 | 3 |
| TSC2 (TSC complex subunit 2) | SID131506603 | 0 | -1.3 | -3.7 | 1.2 |
| NUAK1 (NUAK family kinase 1) | SID131520049 | 1 | 8.5 | -6.2 | 23.1 |
| LOC388787 | SID131507127 | 0 | -0.5 | -5 | 4 |
| KASH5 (KASH domain containing 5) | SID131505855 | 0 | -2.5 | -2.2 | -2.7 |
| ABLIM3 (actin binding LIM protein family member 3) | SID131502729 | -1 | 4.2 | 17 | -8.7 |
| GNPDA2 (glucosamine-6-phosphate deaminase 2) | SID131517338 | 0 | 13.1 | 11.4 | 14.8 |
| CBFA2T2 (CBFA2/RUNX1 partner transcriptional co-repressor 2) | SID131513107 | 0 | 6.2 | 9.8 | 2.7 |
| TM4SF4 (transmembrane 4 L six family member 4) | SID131507695 | 0 | 0.2 | -11 | 11.3 |
| RAB5B (RAB5B, member RAS oncogene family) | SID131504305 | 0 | -5.8 | -0.9 | -10.7 |
| TNR (tenascin R) | SID131507642 | 0 | 0.1 | -2 | 2.2 |
| LOC440126 | SID131521787 | 1 | 14.9 | 20.8 | 9 |
| DIRC1 (disrupted in renal carcinoma 1) | SID131513880 | 0 | 7.1 | 5.4 | 8.8 |
| MIR17HG (miR-17-92a-1 cluster host gene) | SID131511834 | 0 | 4.8 | -1.9 | 11.6 |
| ZNF23 (zinc finger protein 23) | SID131519475 | 1 | 5.8 | 2.3 | 9.2 |
| TOLLIP (toll interacting protein) | SID131500658 | -1 | -18.3 | -14 | -22.6 |
| IL1A (interleukin 1 alpha) | SID131512728 | 0 | 5.8 | 4.8 | 6.8 |
| TCL1B (TCL1 family AKT coactivator B) | SID131518048 | 0 | 16.2 | 6.9 | 25.5 |
| FITM2 (fat storage inducing transmembrane protein 2) | SID131515636 | 0 | 9.5 | 13.7 | 5.2 |
| TSBP1 (testis expressed basic protein 1) | SID131516077 | 0 | 10.2 | 11.1 | 9.3 |
| BAALC (BAALC binder of MAP3K1 and KLF4) | SID131509303 | 0 | 2 | -11.1 | 15.1 |
| COL4A6 (collagen type IV alpha 6 chain) | SID131522133 | 1 | 16.4 | 14.7 | 18.1 |
| ERI2 (ERI1 exoribonuclease family member 2) | SID131503700 | 0 | -8.3 | -6.7 | -9.9 |
| NAA35 (N-alpha-acetyltransferase 35, NatC auxiliary subunit) | SID131509063 | 0 | 1.8 | -3.4 | 6.9 |
| DDIT4L (DNA damage inducible transcript 4 like) | SID131511085 | 0 | 4 | 8 | -0.1 |
| KRTAP4-3 (keratin associated protein 4-3) | SID131518859 | 0 | 32.9 | 33.8 | 32 |
| TMEM128 (transmembrane protein 128) | SID131516709 | 0 | 11.5 | 10.5 | 12.5 |
| YJEFN3 (YjeF N-terminal domain containing 3) | SID131520271 | 1 | 9.3 | 18.8 | -0.1 |
| TCEAL8 (transcription elongation factor A like 8) | SID131510146 | 0 | 2.9 | 11.1 | -5.2 |
| NAT10 (N-acetyltransferase 10) | SID131514434 | 0 | 7.8 | 15.1 | 0.5 |
| SLBP (stem-loop histone mRNA binding protein) | SID131519703 | 1 | 7.1 | 6.6 | 7.6 |
| NIBAN2 (niban apoptosis regulator 2) | SID131510312 | 0 | 3.1 | 11.4 | -5.1 |
| RNF31 (ring finger protein 31) | SID131500554 | -1 | -21.8 | -29.1 | -14.4 |
| LOC149913 | SID131504598 | 0 | -5 | -11.4 | 1.5 |
| SLC25A15 | SID131518708 | 0 | 24.7 | 36.7 | 12.7 |
| MED25 (mediator complex subunit 25) | SID131512605 | 0 | 5.7 | 5.6 | 5.8 |
| SLC12A1 | SID131504923 | 0 | -4.2 | -5.6 | -2.7 |
| LOC440960 | SID131523038 | 2 (active) | 17.6 | 22.3 | 12.9 |
| IL18 (interleukin 18) | SID131510407 | 0 | 3.2 | -9.5 | 15.9 |
| SEMA4F (ssemaphorin 4F) | SID131504470 | 0 | -5.3 | -14.4 | 3.8 |
| ZBTB26 (zinc finger and BTB domain containing 26) | SID131506169 | 0 | -1.9 | 5.7 | -9.5 |
| NUDT22 (nudix hydrolase 22) | SID131503664 | 0 | -8.6 | 1.2 | -18.4 |
| APP (amyloid beta precursor protein) | SID131501677 | -1 | -8.2 | -18.6 | 2.2 |
| IBA57 (iron-sulfur cluster assembly factor IBA57) | SID131508048 | 0 | 0.6 | -9.1 | 10.3 |
| IFI35 (interferon induced protein 35) | SID131516280 | 0 | 10.6 | 8.5 | 12.6 |
| LOC440029 | SID131522807 | 1 | 25.2 | 33.5 | 16.9 |
| MED31 (mediator complex subunit 31) | SID131508131 | 0 | 0.7 | 11.5 | -10.2 |
